Experimental findings from paper PMC5474747 are described below.

The chains behind the UniProt entries cited, without tags or fusion partners. Where a name states a change or a piece, a line headed by the entry shows the natural chain unless it says otherwise.
UniProt Q05930: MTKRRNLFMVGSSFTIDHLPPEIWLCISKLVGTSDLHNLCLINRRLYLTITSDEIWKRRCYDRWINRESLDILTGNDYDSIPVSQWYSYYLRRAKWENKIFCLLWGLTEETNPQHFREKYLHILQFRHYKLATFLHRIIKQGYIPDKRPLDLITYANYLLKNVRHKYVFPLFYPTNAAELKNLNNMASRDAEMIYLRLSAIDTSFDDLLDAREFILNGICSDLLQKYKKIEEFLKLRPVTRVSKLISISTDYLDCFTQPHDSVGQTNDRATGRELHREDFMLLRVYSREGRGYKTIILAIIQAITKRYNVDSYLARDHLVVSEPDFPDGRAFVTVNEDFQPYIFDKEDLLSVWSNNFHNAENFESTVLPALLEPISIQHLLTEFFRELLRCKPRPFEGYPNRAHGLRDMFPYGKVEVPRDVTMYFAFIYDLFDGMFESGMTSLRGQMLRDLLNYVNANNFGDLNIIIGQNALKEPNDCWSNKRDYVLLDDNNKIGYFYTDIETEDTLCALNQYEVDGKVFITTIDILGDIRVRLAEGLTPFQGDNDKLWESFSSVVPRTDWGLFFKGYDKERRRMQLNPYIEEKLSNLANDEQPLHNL

The assay deals with F-box mutant of Mdm30-Myc (S. cerevisiae) (UniProt Q05930). In words: co-IP; lysates of ubp2Δ mdm30Δ yeast co-expressing Ubp2-HA and Mdm30-Myc (WT or F-box mutant); anti-Myc (9E10) or mock on protein G-Sepharose, 2 h at 4 °C; IP buffer 100 mM Tris pH 7.5, 100 mM NaCl, 0.6% Triton X-100, 10% glycerol; anti-HA immunoblot; also done in the presence or absence of Rup1. Background: In western blotting, separated proteins are transferred to a membrane and probed.

No constants are given. Whether binding was seen depends on the method and setting. In cells and extracts the contact can be indirect. Binding calls can cover weak binding; strength is not graded here. Tags and fused reporters may be left off the sequences shown.

B1: Ubp2 tagged with six HA C-terminal epitopes (Ubp2-HA) (enzyme, UniProt Q01476 1-1272)
chain: MPNEDNELQKAIENHHNQLLNQDKENADRNGSVIEDLPLYGTSINQQSTPGDVDDGKHLLYPDIATNLPLKTSDRLLDDILCDTIFLNSTDPKVMQKGLQSRGILKESMLSYSTFRSSIRPNCLGSLTDQVVFQTKSEYDSISCPKYNKIHVFQAVIFNPSLAEQQISTFDDIVKIPIYHLKVSVKVRQELERLKKHVGVTQFHSLDHLHEYDRVDLSTFDSSDPNLLDYGIYVSDDTNKLILIEIFKPEFNSPEEHESFTADAIKKRYNAMCVKNESLDKSETPSQVDCFYTLFKIFKGPLTRKSKAEPTKTIDSGNLALNTHLNPEWLTSKYGFQASSEIDEETNEIFTEYVPPDMVDYVNDLETRKIRESFVRKCLQLIFWGQLSTSLLAPNSPLKNTKSVKGMSSLQTSFSTLPWFHLLGESRARILLNSNEQTHSPLDAEPHFINLSVSHYYTDRDIIRNYESLSSLDPENIGLYFDALTYIANRKGAYQLIAYCGKQDIIGQEALENALLMFKINPKECNISELNEATLLSIYKYETSNKSQVTSNHLTNLKNALRLLAKYTKSDKLKFYVDHEPYRALSQAYDTLSIDESVDEDIIKTAYSVKINDSPGLKLDCDRALYTIAISKRSLDLFNFLTEECPQFSNYYGPEKLDYQEALKLLQVNENASDETILKIFKQKWFDENVYEPDQFLILRAALTKISIERNSTLITNFLLTGTIDPNSLPPENWPTGINNIGNTCYLNSLLQYYFSIAPLRRYVLEYQKTVENFNDHLSNSGHIRRIGGREISRGEVERSIQFIYQLRNLFYAMVHTRERCVTPSKELAYLAFAPSNVEVEFEVEGNKVVDQTGVLSDSKKETTDDAFTTKIKDTSLIDLEMEDGLNGDVGTDANRKKNESNDAEVSENEDTTGLTSPTRVAKISSDQLENALEMGRQQDVTECIGNVLFQIESGSEPIRYDEDNEQYDLVKQLFYGTTKQSIVPLSATNKVRTKVERFLSLLINIGDHPKDIYDAFDSYFKDEYLTMEEYGDVIRTVAVTTFPTILQVQIQRVYYDRERLMPFKSIEPLPFKEVIYMDRYADTENPLLLAKKKETEEMKQKLKVMKNRQRELLSRDDSGLTRKDAFLESIKLLESDTIKKTPLKIEAANDVIKTLRNNVQNIDNELMKLYNDINSLEEKISHQFDDFKEYGYSLFSVFIHRGEASYGHYWIYIKDRNRNGIWRKYNDETISEVQEEEVFNFNEGNTATPYFLVYVKQGQEGDIEPLKRILK
Regarding B1, the binding result was “binds”.
